No constants are given. Whether binding was seen depends on the method and setting. For part of these data: Binding seen in cells or lysates may run through a third protein. Some results given as binding are weak or reduced against the parent protein; the word gives no strength. For part of these data: Sequences can lack the tags named with a protein.
Assays:
[1] = biological target: GST-LANA1–32 (wt CBD) (KSHV (HHV8)) (UniProt Q9QR71); test: pull-down; only the target purified
[2] = biological target: GST-LANA-N (1–340 aa) (KSHV (HHV8)) (UniProt Q9QR71); test: pull-down; only the target purified
[3] = biological target: LANA 1–32 fused to GFP-C term (158–238 aa) (KSHV (HHV8)) (UniProt Q9QR71); test: split reporter
[4] = biological target: LANA 1–340 fused to GFP-C term (KSHV (HHV8)) (UniProt Q9QR71); test: split reporter
[5] = biological target: LANA 1–340 aa-myc (wt CBD) (KSHV (HHV8)) (UniProt Q9QR71); test: co-IP; H1 and H2B co-expressed together with LANA 1-340 aa; data not shown
[6] = biological target: LANA 1–340 aa-myc (wt CBD) (KSHV (HHV8)) (UniProt Q9QR71); test: co-IP
[7] = biological target: GAL4-DBD-LANA 1–340 aa (bait) (KSHV (HHV8)) (UniProt Q9QR71); test: two-hybrid
[8] = biological target: LANA-FL-myc (wt CBD), expressed in cells (KSHV (HHV8)) (UniProt Q9QR71); test: co-IP

By UniProt entry, the sequences of proteins in these tests, tags left out. Where a name states a change or a piece, a line headed by the entry shows the natural chain unless it says otherwise. Residues count along the entry.
UniProt Q9QR71: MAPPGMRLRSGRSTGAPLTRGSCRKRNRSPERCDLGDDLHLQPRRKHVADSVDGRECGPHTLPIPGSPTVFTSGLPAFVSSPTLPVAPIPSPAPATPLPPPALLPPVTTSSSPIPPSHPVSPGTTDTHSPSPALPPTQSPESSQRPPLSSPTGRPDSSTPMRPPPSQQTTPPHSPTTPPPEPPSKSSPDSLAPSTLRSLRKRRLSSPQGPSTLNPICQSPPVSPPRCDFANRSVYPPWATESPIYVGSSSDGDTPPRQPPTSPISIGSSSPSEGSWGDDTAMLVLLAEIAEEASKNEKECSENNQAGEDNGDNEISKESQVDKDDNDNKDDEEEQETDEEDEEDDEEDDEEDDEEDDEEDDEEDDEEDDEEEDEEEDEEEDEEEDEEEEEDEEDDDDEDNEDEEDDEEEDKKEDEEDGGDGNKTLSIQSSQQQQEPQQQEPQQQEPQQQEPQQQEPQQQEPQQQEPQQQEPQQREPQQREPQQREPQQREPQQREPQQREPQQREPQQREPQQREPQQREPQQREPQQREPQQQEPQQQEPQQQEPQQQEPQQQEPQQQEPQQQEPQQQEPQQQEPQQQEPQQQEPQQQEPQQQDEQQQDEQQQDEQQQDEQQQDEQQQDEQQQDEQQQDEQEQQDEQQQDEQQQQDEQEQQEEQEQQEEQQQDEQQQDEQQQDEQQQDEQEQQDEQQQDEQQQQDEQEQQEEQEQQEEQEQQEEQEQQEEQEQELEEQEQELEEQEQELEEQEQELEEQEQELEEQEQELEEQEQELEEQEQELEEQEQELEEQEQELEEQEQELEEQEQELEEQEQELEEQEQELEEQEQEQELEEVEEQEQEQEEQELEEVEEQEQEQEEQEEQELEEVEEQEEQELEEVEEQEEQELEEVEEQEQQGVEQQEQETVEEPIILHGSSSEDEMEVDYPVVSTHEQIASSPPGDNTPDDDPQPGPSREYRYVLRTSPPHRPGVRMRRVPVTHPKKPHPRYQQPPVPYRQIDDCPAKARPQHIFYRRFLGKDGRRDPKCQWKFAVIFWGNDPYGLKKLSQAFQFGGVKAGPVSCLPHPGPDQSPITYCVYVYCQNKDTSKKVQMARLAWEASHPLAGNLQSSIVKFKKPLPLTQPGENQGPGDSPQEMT
GAL4-DBD-LANA 1–340 aa (bait) (KSHV (HHV8)): residues 1-340 of Q9QR71
GST-LANA1–32 (wt CBD) (KSHV (HHV8)): residues 1-32 of Q9QR71
UniProt Q92522: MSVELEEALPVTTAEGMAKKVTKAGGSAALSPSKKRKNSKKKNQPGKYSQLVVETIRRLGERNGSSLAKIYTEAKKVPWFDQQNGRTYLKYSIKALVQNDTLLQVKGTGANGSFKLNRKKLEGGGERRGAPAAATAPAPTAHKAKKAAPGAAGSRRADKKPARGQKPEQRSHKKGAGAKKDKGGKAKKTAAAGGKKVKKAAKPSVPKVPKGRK

in-vitro translated histone H1 (H1.x) (from UniProt Q92522 1-213)
binding [1]: binds | binding [2]: binds

histone H1 fused with GFP-N term (1–157 aa) (from UniProt Q92522 1-213)
binding [3]: binds | binding [4]: binds

HA tagged histone H1 (H1.x) (from UniProt Q92522 1-213)
binding [5]: binds | binding [1]: binds | binding [6]: binds

GAL4-ACT-histone H1 (prey) (from UniProt Q92522 1-213)
binding [7]: binds

B1: GAL4-ACT-DEK (prey) (protein, UniProt P35659 1-375)
chain: MSASAPAAEGEGTPTQPASEKEPEMPGPREESEEEEDEDDEEEEEEEKEKSLIVEGKREKKKVERLTMQVSSLQREPFTIAQGKGQKLCEIERIHFFLSKKKTDELRNLHKLLYNRPGTVSSLKKNVGQFSGFPFEKGSVQYKKKEEMLKKFRNAMLKSICEVLDLERSGVNSELVKRILNFLMHPKPSGKPLPKSKKTCSKGSKKERNSSGMARKAKRTKCPEILSDESSSDEDEKKNKEESSDDEDKESEEEPPKKTAKREKPKQKATSKSKKSVKSANVKKADSSTTKKNQNSSKKESESEDSSDDEPLIKKLKKPPTDEELKETIKKLLASANLEEVTMKQICKKVYENYPTYDLTERKDFIKTTVKELIS
binding [7]: binds

B2: GAL4-ACT-HMG-N1 (prey) (protein, UniProt P05114 1-100)
chain: MPKRKVSSAEGAAKEEPKRRSARLSAKPPAKVEAKPKKAAAKDKSSDKKVQTKGKRGAKGKQAEVANQETKEDLPAENGETKTEESPASDEAGEKEAKSD
binding [7]: binds

B3: HA tagged DEK (protein, UniProt P35659 1-375)
chain: B1 chain
binding [8]: binds

B4: HA tagged HMG-N1 (protein, UniProt P05114 1-100)
chain: B2 chain
binding [8]: binds
